Data as given in the supplement of paper PMC8326762, “A Small Molecule Inhibitor of Pex3–Pex19 Interaction Disrupts Glycosome Biogenesis and Causes Lethality in Trypanosoma brucei” (Frontiers in Cell and Developmental Biology, 2021).
Counter-ions that a name gives are not always drawn. The list shows a part of the results. Single values of this set are uncertain.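 Optical density at 600 nm measured yeast growth. Because the two-hybrid strains grew without histidine, growth required Pex3–Pex19 binding. Trypanosome selectivity meant a compound inhibited the trypanosome-pair strain's growth by more than 65% but the human-pair strain's by less than 65%.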

What was measured:
[1] = tested on: Saccharomyces cerevisiae HF7c pdr5Δ; assay: general growth inhibition of yeast HF7c pdr5Δ in -Leu -Trp medium, relative to DMSO; higher = stronger general growth inhibition; details: 100 µM; 24 h
[2] = tested on: human PEX3-PEX19 interaction (yeast two-hybrid); assay: growth inhibition of yeast two-hybrid strain reporting HsPex3-HsPex19 interaction, relative to DMSO; higher = stronger inhibition of human Pex3-Pex19 interaction / growth; details: 100 µM; 24 h; 3-aminotriazole 10 mM
[3] = tested on: T. brucei Pex3-Pex19 interaction (yeast two-hybrid); assay: growth inhibition of yeast two-hybrid strain reporting TbPex3-TbPex19 interaction, relative to DMSO; higher = stronger inhibition of T. brucei Pex3-Pex19 interaction / growth; details: 100 µM; 24 h

SMILES | general growth inhibition [1] [%] | growth inhibition [2] [%] | growth inhibition [3] [%]
COc1ccccc1N1CCNCC1 [1-(2-Methoxyphenyl)piperazine hydrochloride] | 42.3 | 41.7 | 57.9
CC(=O)[C@H]1CC[C@H]2[C@@H]3CC[C@H]4C[C@H](O)CC[C@]4(C)[C@H]3C(=O)C[C@]12C [5alpha-Pregnan-3alpha-ol-11,20-dione] | 68.7 | 55.2 | 62.4
O=C(N[C@H]1CN2CCC1CC2)c1ccc(Cl)cc1 | 42.2 | 51.6 | 66.3
O=[N+]([O-])c1ccc2nc(N3CCNCC3)ccc2c1 [Quipazine, 6-nitro-, maleate] | 43.9 | 52.3 | 65.7
CCCN(CCC)CCc1ccc(O)c(O)c1 [Dipropyldopamine hydrobromide] | 24.1 | 22.5 | 59.5
O=c1[nH]c2ccccc2n1C1CCN(CCCC(c2ccc(F)cc2)c2ccc(F)cc2)CC1 [Pimozide] | 48 | 65.8 | 61.6
COc1ccc2c(c1OC)C(=O)OC2C1c2cc3c(cc2CCN1C)OCO3 (single isomer, unassigned; (+)) [(+)-Hydrastine] | 36.6 | 19 | 61.7
Oc1ccc2c3c1O[C@H]1c4[nH]c5ccccc5c4C[C@@]4(O)[C@@H](C2)N(CC2CC2)CC[C@]314 [Naltrindole hydrochloride] | 47.5 | 41.3 | 62.4
NNC(=O)c1ccc(O)cc1 [4-Hydroxybenzhydrazide] | 24.6 | 35.4 | 54
Clc1cnc(Oc2ccc(Oc3ncc(Cl)cc3Cl)cc2)c(Cl)c1 | 39.3 | 28.8 | 45
CCCN1CCC[C@@H]2Cc3nc(N)ncc3C[C@H]21 [Quinelorane dihydrochloride] | 13.6 | -4.37 | -15.6
C[C@@H]1O[C@@H](O[C@H]2C[C@@H](O)[C@]3(CO)[C@H]4[C@H](O)C[C@]5(C)[C@@H](C6=CC(=O)OC6)CC[C@]5(O)[C@@H]4CC[C@]3(O)C2)[C@H](O)[C@H](O)[C@H]1O [Ouabain] | 44.2 | 45 | 46.7
O=c1[nH]oc2c1CCNC2 [THIP hydrochloride] | 51.3 | 46.9 | 64.1
CC(O)(CS(=O)(=O)c1ccc(F)cc1)C(=O)Nc1ccc(C#N)c(C(F)(F)F)c1 (centres undefined) [Bicalutamide (CDX)] | 53.5 | 47.6 | 68.8
CC(C)(C)NCC(O)c1ccccc1Cl (centres undefined) [Tulobuterol hydrochloride] | 49.7 | 47.8 | 67
C=CCN1CC[C@]23c4c5ccc(O)c4O[C@H]2C(=O)CC[C@@]3(O)[C@H]1C5 [Naloxone hydrochloride] | 47.1 | 49.2 | 64.9
O=C(O)[C@@H]1CCN1 [L-azetidine-2-carboxylic acid] | 48.9 | 51.5 | 62.4
CN(C(=O)Cc1ccc(Cl)c(Cl)c1)C(CN1CCCC1)c1cccc(OCC(=O)O)c1 (centres undefined) [ICI 204,448 hydrochloride] | 43.5 | 48.7 | 60.1
CCCN(CCC)C1Cc2cc(OC)c(OC)cc2C1 | 44.8 | 45.4 | 56.9
COc1ccc(Cc2nccc3cc(OC)c(OC)cc23)cc1OC [Papaverine hydrochloride] | 8.4 | 12.2 | 32.6
C=C(C)[C@H]1CN[C@H](C(=O)O)[C@H]1CC(=O)O [Kainic acid] | 46.6 | 48.1 | 61.1
CC(C)Oc1cccnc1N(C)C1CCN(Cc2ccccc2)CC1 | 12.9 | 10.7 | 39.6
CN1CC[C@]2(CCN3CCc4c(oc5ccccc45)[C@@H]3C2)N(C)C1=O | 53.2 | 48.2 | 71.3
Ic1ccccc1CNC1C2CCN(CC2)C1C(c1ccccc1)c1ccccc1 [L-703,606 oxalate salt hydrate] | 33.3 | 25.1 | 67
Cc1sc2ccccc2c1CC1=NCCN1 [Benazoline oxalate] | 39.2 | 41.1 | 60.1
CN1C[C@H](C(=O)N[C@]2(C)O[C@@]3(O)[C@@H]4CCCN4C(=O)[C@H](Cc4ccccc4)N3C2=O)C[C@@H]2c3cccc4[nH]cc(c34)C[C@H]21 [Dihydroergotamine methanesulfonate] | 37.1 | 34.8 | 57.4
CN1[C@@H]2CC[C@H]1C[C@@H](OC(c1ccccc1)c1ccccc1N)C2 (some centres undefined) [Aminobenztropine] | 40.9 | 39.1 | 62.1
CC(CCc1ccccc1)NC(C)C(O)c1ccc(O)cc1 (centres undefined) [Nylidrin hydrochloride] | 52.7 | 40.5 | 60.2

2 successive entries out of the list so far, quoted:
SMILES | general growth inhibition [1] [%] | growth inhibition [2] [%] | growth inhibition [3] [%]
C=CCN1CC[C@]23c4c5ccc(O)c4O[C@H]2C(=O)CC[C@@]3(O)[C@H]1C5 [Naloxone hydrochloride] | 47.1 | 49.2 | 64.9
O=C(O)[C@@H]1CCN1 [L-azetidine-2-carboxylic acid] | 48.9 | 51.5 | 62.4
